# According to the supplement of paper PMC12889115:
# The list shows a part of the results. These are raw signals, not scaled to a control.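 Primary screen: polymyxin B was added at a level permeabilizing Salmonella outer membranes while sparing inner membranes. DMSO wells, both with and without polymyxin B, established maximum growth. Plate-to-plate variation meant each plate was ranked on its own, and the lowest-OD600 compounds were selected as hits.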
# Tested on: Salmonella enterica serovar Typhimurium SL1344
# Test: bacterial growth OD600 after 18 h with compound and polymyxin B; higher = more bacterial growth (less inhibition)
# Settings: 50 µM, Mueller-Hinton broth
SMILES,bacterial growth OD600 (polymyxin B 1 µg/mL),bacterial growth OD600 (polymyxin B 0.75 µg/mL)
O=C(c1coc(Cn2cnc3ccccc32)n1)N1CCC(C2CCCCC2)C1 (stereo unspecified),0.012,
Cc1ccccc1-n1ncc(C(C)NC(=O)C2CC2)c1C (stereo unspecified),0.946,
Cc1nc(N2CCC(C(=O)NCC3CC3)CC2)nc2cc(S(C)(=O)=O)ccc12,,0.805
CCn1ccnc1CN1CCCC(CCc2ccc(OC)cc2)C1 (stereo unspecified),,0.834
COc1ccc(C(=O)N2CCOc3c(cc(-c4cccnc4)cc3OCCc3cccs3)C2)c(OC)c1,,0.092
c1ccc(C(CC2CN(Cc3c[nH]cn3)CCO2)c2ccccc2)cc1 (stereo unspecified),,0.542
O=C(c1cccs1)C1CCCN(Cc2nc(CCc3ccccc3)no2)C1 (stereo unspecified),1.03,
COCc1noc(-c2ccc(N3CCCOCC3)nc2)n1,0.993,
Cc1cc2nc(N3CCC(C(=O)NC4CCOC4)CC3)nc(C)c2cc1C (stereo unspecified),,0.778
CN(CC1CCCN(CCc2cccc(C(F)(F)F)c2)C1)C(=O)CCn1cnnn1 (stereo unspecified),,0.855
COCc1ccc(C(=O)NCc2cccnc2-n2cnc3ccccc32)o1,0.844,
CC(=O)c1ccc(C(=O)N2CCC3(CCCN(CCc4ccccc4)C3)C2)s1 (stereo unspecified),0.521,
c1cc(CN(CCN2CCCCC2)CC2CCCN(C3CCCC3)C2)no1 (stereo unspecified),0.932,
CSc1cccc(CN2CCCC(CNC(=O)c3cccs3)C2)c1 (stereo unspecified),0.709,
CCC(=O)N1CCCC(c2nc(-c3cccnc3)ncc2-c2ccccc2F)C1 (stereo unspecified),,0.821
CSc1nccc(-c2cc(Cl)c3c(c2)CC(CNC(=O)CC2CC2)O3)n1 (stereo unspecified),,0.49

SMILES,bacterial growth OD600 (polymyxin B 1 µg/mL),bacterial growth OD600 (polymyxin B 0.75 µg/mL)
CCN1CCN(Cc2ccc(OCC(O)CN3CCN(CC)CC3)c(OC)c2)CC1 (stereo unspecified),0.927,
CC(C)CN1CCC(N2CCCC(C(=O)NC3CC3)C2)CC1 (stereo unspecified),,0.828
O=C(c1cccc2ccccc12)C1CCCN(Cc2cccc3c2OCO3)C1 (stereo unspecified),0.558,
O=C(Nc1ccccc1Oc1cccnc1)C1CCCN1C1CCCCC1 (stereo unspecified),0.657,
Cc1nc(N(C)C2CCCCC2)ncc1C(C)NC(=O)C(C)C (stereo unspecified),,0.713
COC(=O)C1CCCCN1C(=O)c1c(OC)cc(=O)n2c1CCN(Cc1cccc(F)c1F)CC2 (stereo unspecified),,0.841
CC(C)CNC(=O)C1CCCN(C2CCN(C(=O)C3CC3)CC2)C1 (stereo unspecified),,0.817
COC(=O)C1CCCCN1Cc1nc(-c2ccccc2C)oc1C (stereo unspecified),0.826,
COc1cc(-c2cnnc(N3CCC(c4ccc(F)cc4)C3)n2)cc(OC)c1OC (stereo unspecified),1.16,
Cc1cccc(CN2CCN(C(=O)c3cn(CC(C)C)cc(C(=O)NCCC(C)C)c3=O)CC2)c1,,0.006
OCC#Cc1csc(CN2CC[C@@H](N3CCN(c4ccccn4)CC3)[C@H](O)C2)c1,0.866,
Cc1nc(CN(C)C(=O)CC2(c3ccccc3F)CC(=O)N(C3CCCCC3)C2=O)cs1 (stereo unspecified),,0.005
O=C(NCCN1CCOCC1)c1ccc(N2CCC(NC[C@H]3CCc4ccccc4O3)CC2)cc1,,0.814
COc1cccc(CC(C2CCN(C(=O)c3ccccc3F)CC2)N(C)C(=O)c2ccsc2)c1 (stereo unspecified),,0.575
O=C(Nc1cccc(N2CCC(NCCOc3cccnc3)CC2)c1)c1cccc(C(F)(F)F)c1,,0.779

# Complete entries, quoted from the list.
# Cc1cccc(CN2CCN(C(=O)c3cn(CC(C)C)cc(C(=O)NCCC(C)C)c3=O)CC2)c1 is listed with bacterial growth OD600 (polymyxin B 0.75 µg/mL): 0.006
# O=C(NCCN1CCOCC1)c1ccc(N2CCC(NC[C@H]3CCc4ccccc4O3)CC2)cc1 is listed with bacterial growth OD600 (polymyxin B 0.75 µg/mL): 0.814
